A short description of the experiment: qHTS Assay for Lipid Storage Modulators in Drosophila S3 Cells.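 As to cell number change: cells counted by Cell Tracker Red CMTPX staining in the red channel.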 To be noted: BODIPY lipid droplet fluorescence, 18-24 h; for cell number change: measured here: cell count max response, cells fed with added oleic acid. The gist of the method:
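Drosophila S3 cells got compounds at several concentrations plus oleic acid (400 uM solution). Laser-scanning cytometry with 488 nm excitation read lipid droplets at 500-530 nm and cells at 575-640 nm. Percent activity was relative to 20 uM Triacsin C.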

Setting [1] is: measured here: lipid fluorescence (Fed channel) AC50, cells fed with added oleic acid.
[2] abbreviates: measured here: cell number channel AC50, cells fed with added oleic acid.

The structures appear in SMILES notation. This is one part of the list. The main result of the screen is listed elsewhere. These columns were measured beside it and carry no call. The list favours compounds with an active or inconclusive main result. Potencies come from curve fits of mixed quality, noted in brackets.

As to `C(=N\c1nc2ccccc2[nH]1)/c1cccs1`, the cell number change is 2.43%. The AC50 – broadly, the concentration at which the activity in the assay is half-maximal – under setting [1] was 3.26 µM [falling, single point].
Regarding `ClCc1csc(-c2ccc(Cl)cc2)n1`, the cell number change was found to be 19.8%. Besides, the AC50 under setting [1] was 0.092 µM [rising, full curve, poor fit].
In the case of `CC1CCCN(S(=O)(=O)c2ccc(NC(=O)CN3CCN(C)CC3)cc2)C1` (stereo not given), the cell number change came out at 24.3%. Moreover, the AC50 under setting [1] is 29.1 µM [rising, single point].
As to `CCOC(=O)N1CCN(CC(O)COc2ccc(OC)cc2C(C)(C)C)CC1` (stereo not given), the cell number change was -30.1%. For the same molecule, under setting [2], the concentration at half-maximal activity (AC50) was 18.4 µM [falling, single point]. For the same molecule, the AC50 under setting [1] was 29.1 µM [falling, partial curve, poor fit].
For `CCOc1ccc(NC(=O)c2ccc(CSc3nnnn3C)cc2)cc1`, the cell number change was -26.8%.
On to `COc1ccccc1N1CCN(c2cc(=O)n(-c3ccccc3Cl)c(=O)[nH]2)CC1`, for which the cell number change amounted to 28.5%. Besides, the AC50 under setting [1] is 8.2 µM [rising, single point].
For the molecule `CC(Oc1ccccc1)C(=O)Nc1cccc([N+](=O)[O-])c1` (stereo not given), the cell number change is -13.5%. The AC50 under setting [1] was 0.00461 µM [falling, full curve, poor fit].
On to `CCOc1ccccc1OCC(=O)NCc1ccco1`, for which the cell number change turned out to be 8.56%.
With `O=S(=O)(Cc1ccc(Cl)cc1)N1CCN(c2ncccn2)CC1`, under setting [1], the AC50 is 0.0326 µM [rising, full curve].
For the molecule `Cn1c(SCC(=O)NCc2ccco2)nnc1C1CCCC1`, the cell number change was 21.1%. Under setting [1], the AC50 was 32.6 µM [rising, partial curve].
`O=C(COC(=O)c1ccc2c(c1)OCO2)NC1CCS(=O)(=O)C1` (stereo not given): the cell number change was determined as 2.37%.
As for `N#C/C(=N\Nc1ccccc1)C(=N)N1CCCCC1`, the cell number change was determined as 12%. Under setting [1], the concentration at half-maximal activity (AC50) was 0.00517 µM [falling, full curve, poor fit].
Consider `O=C(O)c1ccccc1Nc1ccc([N+](=O)[O-])cc1`, for which the cell number change worked out at 76.3%. The AC50 under setting [2] is 29.1 µM [rising, single point]. Further, under setting [1], the concentration at half-maximal activity (AC50) was 29.1 µM [rising, single point].
For `Nc1nnc(-c2ccccc2[N+](=O)[O-])o1`, the cell number change is 3.97%. Under setting [1], the AC50 was 3.26 µM [rising, single point].
For the molecule `CC(C)(CSc1nncn1/N=C/c1ccco1)NS(=O)(=O)c1ccc(Cl)cc1`, under setting [1], the AC50 is 11.6 µM [rising, partial curve].
Take `CCC(C(=O)Nc1cccc(C(F)(F)F)c1)c1ccccc1` (stereo not given): the cell number change is -37.7%. Also, the AC50 under setting [2] is 4.11 µM [falling, partial curve].
On to `Cc1c(N=Cc2cc3c(cc2Cl)OCO3)c(=O)n(-c2ccccc2)n1C`, for which the cell number change is -9.86%. The AC50 under setting [1] is 0.00411 µM [falling, full curve, poor fit].
Turning to `CCCCSc1nnc2c(n1)OC=Nc1ccccc1-2`, the cell number change came out at 24.4%. In addition, the AC50 under setting [1] was 13 µM [rising, partial curve, poor fit].
Consider `Cc1ccccc1[C@@]1(C)ON(c2ccccc2C(F)(F)F)C1=O`, for which the cell number change was -86.4%. Also, the half-maximal activity concentration (AC50) under setting [2] was 20.6 µM [falling, partial curve].
On to `O=C(C1CCN(S(=O)(=O)c2cccs2)CC1)N1CCCCC1`, for which the cell number change is 0.54%. Under setting [1], the half-maximal activity concentration (AC50) was 0.58 µM [rising, single point].
Turning to `CCc1ccccc1NC(=S)NN`, the AC50 under setting [1] is 0.116 µM [rising, full curve].
With `Cc1nn(C)c(C)c1C1C(C#N)=C(N)OC2=C1C(=O)CC(C)(C)C2` (stereo not given), the cell number change amounted to 42.9%. Besides, the AC50 under setting [2] was 29.1 µM [rising, single point]. Moreover, the half-maximal activity concentration (AC50) under setting [1] was 18.4 µM [rising, single point].
Consider `CCN(c1ccccc1)S(=O)(=O)c1ccc(OC)c(NC(=O)Cc2ccc(F)cc2)c1`, for which the cell number change was -8.69%. The AC50 under setting [2] was 6.51 µM [rising, single point]. For the same molecule, the AC50 under setting [1] is 1.46 µM [falling, partial curve].
On to `COc1cc(C2Nc3ccccc3C(=O)N2c2ccc3c(c2)OCCO3)ccc1OCC(C)C` (stereo not given), for which the cell number change is 5.95%. Besides, the AC50 under setting [1] was 0.517 µM [rising, single point].
Regarding `CC(=N\NC(=O)c1ccc([N+](=O)[O-])cc1)/C(=N/O)C(=O)Nc1ccccc1`, the cell number change is -34.5%. Further, the AC50 under setting [2] was 32.6 µM [falling, single point].
As to `CC1(C)CC(=O)C2=C(C1)N=C1SCCC(=O)N1C2c1ccc(C(F)(F)F)cc1` (stereo not given), the cell number change is 33.9%. Besides, the concentration at half-maximal activity (AC50) under setting [2] is 10.3 µM [rising, single point].
On to `COc1ccc(-c2cn3c(C)c(C(=O)NCCN4CCOCC4)sc3n2)cc1`, for which, under setting [1], the AC50 is 3.26 µM [rising, single point].
Take `C=CCCC(=O)N1CCC(Oc2cccc(C(=O)NCc3ccccn3)c2)CC1`: the cell number change is 17.9%. Moreover, under setting [1], the AC50 was 0.184 µM [rising, full curve, poor fit].
As for `CC1(C)CC(NC(=O)C2CCCCC2)CC(C)(C)N1`, the cell number change is -5.22%.
On to `Cc1ccc2nc(Cl)c(CN(C(=O)c3cnccn3)C3CCCCC3)cc2c1`, for which the cell number change is -0.862%. In addition, the AC50 under setting [1] is 0.82 µM [rising, single point].
Consider `COc1ccc(C(=O)NCCSc2ccccc2)cc1`, for which the AC50 reads like this: under setting [2], 0.731 µM [rising, single point]; under setting [1], 0.58 µM [rising, single point].
For `Cc1cc(NC(=O)COC(=O)CCCOc2ccc(Cl)cc2C)no1`, the cell number change was -30%. The AC50 under setting [2] was 0.103 µM [falling, full curve, poor fit]. For the same molecule, under setting [1], the AC50 was 7.31 µM [falling, partial curve].
As to `COc1cc(CCC(=O)OCC(=O)Nc2ccccc2F)cc(OC)c1OC`, the cell number change is 40.4%. In addition, under setting [2], the AC50 was 18.4 µM [rising, partial curve, poor fit]. The half-maximal activity concentration (AC50) under setting [1] was 18.4 µM [rising, partial curve, poor fit].
For `COc1cccc(NC(=O)C2C3C=CC(O3)C2C(=O)O)c1` (stereo not given), the cell number change was -7.41%. Under setting [1], the AC50 was 2.31 µM [rising, partial curve].
With `COc1ccccc1OCc1ccc(C(=O)c2ccccc2)cc1`, the cell number change is -2.92%.
As to `CCSC(C)CC1CC(=O)CC(=O)C1` (stereo not given), the cell number change was -62.7%. The AC50 under setting [2] was 14.6 µM [falling, partial curve].
Consider `COc1ccc(/C(O)=C/c2nc3ccccc3n(-c3ccccc3)c2=O)cc1`, for which the cell number change was determined as 94.9%. Moreover, the concentration at half-maximal activity (AC50) under setting [2] was 0.58 µM [rising, full curve]. The AC50 under setting [1] was 0.58 µM [rising, full curve].
Consider `O=C(NC(=S)NCC1CCCO1)c1ccccc1` (stereo not given), for which the cell number change was -4.29%. Moreover, the concentration at half-maximal activity (AC50) under setting [1] is 9.2 µM [rising, partial curve, poor fit].
For the molecule `Cc1ccc2nc(/C(C#N)=C\c3ccc([N+](=O)[O-])o3)[nH]c2c1`, the AC50 under setting [1] was 10.3 µM [falling, single point].

The values above are taken from PubChem BioAssay AID2685 (National Center for Advancing Translational Sciences (NCATS), 2010).
